# Test results reported in PubChem BioAssay AID336 (DTP/NCI, 2004).
# The list is a part of this screen's results and no random one: it is rich in T/C values a quarter to a half above the control, in often repeated tests (any T/C) and in doses without a T/C. Further doses and runs are listed elsewhere. T/C gives the treated animals as a percentage of the vehicle group. Some entries give survivors of the animals treated and no T/C: the source files T/C as zero there, which appears to mark a toxic dose or a test without result, not a measured value. Some doses without a T/C left all or most animals alive at the check, yet need not have been tolerated: the source hardly ever lists a survival T/C far under the control, and the zero likely stands for such cases as well. Survivors were counted at the toxicity check, usually on the fifth day, unless a day is given; later deaths do not show. Schedules are NCI's codes, taken here to give the interval after Q, in days (D) or hours (H), and the number of doses after X. Some entries were tested several times; the results are listed from low to high. For survival time, this PubChem deposit counts one and a half times the control or more as active, and values a quarter to a half above the control carry no call in these data; other NCI protocols may use other cut-offs. Some T/C values are followed by the survivors on the day toxicity was checked, most often the fifth; where none is given, no animal had died by that day.
# Tested on: BDF1 mice, P388/VCR leukemia ip, median survival T/C
# Test: NCI In Vivo Anticancer Drug Screen. Data for tumor model P388 Leukemia resistant to Vincristine; NSC 67574 (intraperitoneal) in B6D2F1 (BDF1) mice
# Conditions: T/C endpoint: median survival time, higher T/C = longer survival
# Description: The antitumor activity of compounds was measured in mice bearing transplantable tumors. Survival or tumor size were measured and the results are expressed as the measurement made in the treated group (T) divided by the measurement made in the vehicle treated control group (C). The tumor model used in this assay is P388 Leukemia resistant to Vincristine; NSC 67574 (intraperitoneal) in B6D2F1 (BDF1) mice
# [1] = dose: 25.0 mg/kg/injection, schedule: Q01DX010 (ip), vehicle: saline
# [2] = dose: 50.0 mg/kg/injection, schedule: Q01DX010 (ip), vehicle: saline
# [3] = dose: 0.5 mg/kg/injection, schedule: Q01DX010 (ip), vehicle: saline
# [4] = dose: 100.0 mg/kg/injection, schedule: Q01DX010 (ip), vehicle: saline
# [5] = dose: 1.25 mg/kg/injection, schedule: Q01DX010 (ip), vehicle: saline
# [6] = dose: 2.5 mg/kg/injection, schedule: Q01DX010 (ip), vehicle: saline
# [7] = dose: 150.0 mg/kg/injection, schedule: Q01DX010 (ip), vehicle: saline
# [8] = dose: 200.0 mg/kg/injection, schedule: Q01DX010 (ip), vehicle: saline
structure (smiles),measurement,setting,value
O=C(O)CCCc1ccc(N(CCCl)CCCl)cc1,T/C,"dose: 12.5 mg/kg/injection, schedule: Q01DX010 (ip), vehicle: saline",144 % of control
same,survivor count,[1],0 of 6
COc1cc([C@@H]2c3cc4c(cc3[C@@H](OC3OC5CO[C@@H](c6cccs6)OC5C(O)C3O)[C@H]3COC(=O)[C@H]23)OCO4)cc(OC)c1O (stereo not given in full),T/C,"dose: 3.24 mg/kg/injection, schedule: Q04DX003 (ip), vehicle: clinical formulation",145 % of control
same,T/C,"dose: 9.0 mg/kg/injection, schedule: Q04DX003 (ip), vehicle: clinical formulation",149 % of control
O=NN(CCCl)C(=O)NCCCl,survivor count,[1],6 of 6
same,survivor count,[2],6 of 6
same,survivor count,"dose: 60.0 mg/kg/injection, schedule: Q01DX001 (ip), vehicle: saline",8 of 8
CNc1nc(Nc2ccc(C3=NCCN3)cc2)nc(Nc2ccc(C3=NCCN3)cc2)n1,T/C,"dose: 13.3 mg/kg/injection, schedule: Q01DX010 (ip), vehicle: saline",125 % of control
N#CCSc1ncnc2nc[nH]c12,survivor count,"dose: 120.0 mg/kg/injection, schedule: Q01DX010 (ip), vehicle: saline",5 of 6 and 6 of 6
CC[C@@]1(O)C[C@H](OC2CC(N(C)C)C(OC3CC(O)C(OC4CCC(=O)C(C)O4)C(C)O3)C(C)O2)c2c(cc3c(c2O)C(=O)c2c(O)ccc(O)c2C3=O)[C@H]1C(=O)OC (stereo not given in full),T/C,"dose: 1.73 mg/kg/injection, schedule: Q04DX003 (ip), vehicle: water",130 % of control
CC1CC(C)(O)CC(C(O)CC2CC(=O)NC(=O)C2)C1=O (stereo not given),T/C,"dose: 173.0 micrograms/kg/injection, schedule: Q01DX009 (ip), vehicle: saline",130 % of control
same,T/C,"dose: 288.0 micrograms/kg/injection, schedule: Q01DX009 (ip), vehicle: saline",134 % of control
O[C@H](CN1CC1)[C@@H](O)CN1CC1,T/C,[3],137 % of control
same,survivor count,[3],6 of 6
same,survivor count,"dose: 1.0 mg/kg/injection, schedule: Q01DX010 (ip), vehicle: saline",3 of 6 and 6 of 6
Nc1nncs1,T/C,"dose: 108.0 mg/kg/injection, schedule: Q04DX003 (ip), vehicle: saline",129 % of control
same,survivor count,"dose: 300.0 mg/kg/injection, schedule: Q04DX003 (ip), vehicle: saline",3 of 8
C[n+]1ccc(Nc2ccc(NC(=O)c3ccc(Nc4cc[n+](C)c5ccc(N)cc45)cc3)cc2)cc1,T/C,"dose: 5.4 mg/kg/injection, schedule: Q04DX003 (ip), vehicle: water",136 % of control
same,T/C,"dose: 9.0 mg/kg/injection, schedule: Q04DX003 (ip), vehicle: water",138 % of control
same,T/C,"dose: 15.0 mg/kg/injection, schedule: Q04DX003 (ip), vehicle: water",148 % of control [6 of 8 alive]
COS(C)(=O)=O,survivor count,[2],6 of 6
same,survivor count,[4],5 of 6
Oc1cc(CN(CCCl)CCCl)c(O)cc1CN(CCCl)CCCl,T/C,"dose: 0.63 mg/kg/injection, schedule: Q01DX010 (ip), vehicle: saline",126 and 133 % of control
same,T/C,[5],137 % of control
same,survivor count,[5],3 of 6
same,T/C,[6],137 % of control [5 of 6 alive]
CS(=O)(=O)OCCCl,survivor count,"dose: 18.8 mg/kg/injection, schedule: Q01DX010 (ip), vehicle: saline",6 of 6
same,T/C,[7],139 % of control
same,survivor count,[7],3 of 6
same,survivor count,"dose: 300.0 mg/kg/injection, schedule: Q01DX010 (ip), vehicle: saline",0 of 6
COc1cc(-c2ccc(Nc3ccccc3C(=O)O)c(OC)c2)ccc1Nc1ccccc1C(=O)O,T/C,"dose: 45.0 mg/kg/injection, schedule: Q01DX010 (ip), vehicle: saline",125 % of control
same,survivor count,"dose: 67.0 mg/kg/injection, schedule: Q01DX010 (ip), vehicle: saline",0 of 6
same,survivor count,[7],6 of 6
CCOC(=O)NP(=O)(N1CC1(C)C)N1CC1(C)C (stereo not given),T/C,"dose: 62.5 mg/kg/injection, schedule: Q01DX010 (ip), vehicle: saline",146 % of control
O=C1N[C@@H]([C@H]2CC[C@H](Cl)CN2)C(=O)N[C@H]1[C@H]1CC[C@H](Cl)CN1,T/C,"dose: 1.44 mg/kg/injection, schedule: Q04DX003 (ip), vehicle: saline",141 % of control
same,T/C,"dose: 6.67 mg/kg/injection, schedule: Q04DX003 (ip), vehicle: saline",134 % of control
CCN(CC)CCNc1ccc(CO)c2sc3ccccc3c(=O)c12,T/C,"dose: 42.0 mg/kg/injection, schedule: Q01DX009 (ip), vehicle: water",136 % of control
same,T/C,"dose: 60.0 mg/kg/injection, schedule: Q01DX009 (ip), vehicle: water",132 % of control [7 of 8 alive]
same,T/C,"dose: 70.0 mg/kg/injection, schedule: Q01DX009 (ip), vehicle: water",133 % of control
same,T/C,"dose: 100.0 mg/kg/injection, schedule: Q01DX009 (ip), vehicle: water",139 % of control
CC/C(=C(/CC)c1ccc(O)cc1)c1ccc(O)cc1,survivor count,"dose: 25.0 mg/kg/injection, schedule: Q01DX010 (sc), vehicle: steroid suspending solution",6 of 6
same,survivor count,"dose: 50.0 mg/kg/injection, schedule: Q01DX010 (sc), vehicle: steroid suspending solution",6 of 6
same,survivor count,"dose: 100.0 mg/kg/injection, schedule: Q01DX010 (sc), vehicle: steroid suspending solution",6 of 6
CC(=O)O[C@H]1C(=O)[C@@]2(C)[C@H]([C@H](OC(=O)c3ccccc3)[C@]3(O)C[C@H](OC(=O)[C@H](O)[C@@H](NC(=O)c4ccccc4)c4ccccc4)C(C)=C1C3(C)C)[C@]1(OC(C)=O)CO[C@@H]1C[C@@H]2O,survivor count,"dose: 100.0 mg/kg/injection, schedule: Q04DX003 (ip), vehicle: Klucel (hydroxypropylcellulose) (HPC)",7 of 8
O=C1CCC(N2C(=O)c3ccccc3C2=O)C(=O)N1 (stereo not given),T/C,"dose: 31.3 mg/kg/injection, schedule: Q01DX010 (ip), vehicle: saline",125 % of control
same,survivor count,"dose: 250.0 mg/kg/injection, schedule: Q01DX010 (ip), vehicle: saline",6 of 6
N#[N+]c1cnc([O-])[nH]c1=O,T/C,[5],144 % of control
same,T/C,[6],130 and 148 % of control
same,T/C,"dose: 5.0 mg/kg/injection, schedule: Q01DX010 (ip), vehicle: saline",135 % of control
same,survivor count,"dose: 20.0 mg/kg/injection, schedule: Q01DX010 (ip), vehicle: saline",0 of 6
O=c1cnn(C2OC(CO)C(O)C2O)c(=O)[nH]1 (stereo not given),T/C,[8],130 % of control
same,survivor count,"dose: 800.0 mg/kg/injection, schedule: Q01DX010 (ip), vehicle: saline",6 of 6
CC(CCC(C)OS(C)(=O)=O)OS(C)(=O)=O (stereo not given),survivor count,"dose: 4.0 mg/kg/injection, schedule: Q01DX010 (ip), vehicle: saline",6 of 6
CC(CN1CC(=O)NC(=O)C1)N1CC(=O)NC(=O)C1 (stereo not given),T/C,"dose: 86.4 mg/kg/injection, schedule: Q04DX003 (ip), vehicle: Klucel (hydroxypropylcellulose) (HPC)",129 % of control
same,T/C,"dose: 108.0 mg/kg/injection, schedule: Q04DX003 (ip), vehicle: alkali diluted with saline",126 % of control
same,T/C,"dose: 144.0 mg/kg/injection, schedule: Q04DX003 (ip), vehicle: Klucel (hydroxypropylcellulose) (HPC)",128 % of control
same,T/C,"dose: 180.0 mg/kg/injection, schedule: Q04DX003 (ip), vehicle: Klucel (hydroxypropylcellulose) (HPC)",126 % of control
same,T/C,"dose: 180.0 mg/kg/injection, schedule: Q04DX003 (ip), vehicle: alkali diluted with saline",138 % of control
same,T/C,"dose: 300.0 mg/kg/injection, schedule: Q04DX003 (ip), vehicle: Klucel (hydroxypropylcellulose) (HPC)",133 % of control [7 of 8 alive]
same,T/C,"dose: 500.0 mg/kg/injection, schedule: Q04DX003 (ip), vehicle: Klucel (hydroxypropylcellulose) (HPC)",140 % of control
CC1CCOS(=O)O1 (stereo not given),survivor count,"dose: 80.0 mg/kg/injection, schedule: Q01DX010 (ip), vehicle: saline",6 of 6
CC(=O)Nc1ccc2nc3ccc(NC(C)=O)cc3[n+](-c3ccccc3)c2c1,survivor count,[4],6 of 6
same,survivor count,[8],5 of 6
O=P1(N(CCCl)CCCl)NCCCO1 (stereo not given),T/C,"dose: 86.4 mg/kg/injection, schedule: Q01DX001 (ip), vehicle: saline",149 % of control
same,survivor count,"dose: 400.0 mg/kg/injection, schedule: Q01DX001 (ip), vehicle: saline",7 of 8
